Results are given in words; binding and its absence hold for the method and conditions named.

By UniProt entry, the sequences of proteins in these tests, tags left out. Residues count along the entry.
UniProt Q9Y6X9, residues 1-603: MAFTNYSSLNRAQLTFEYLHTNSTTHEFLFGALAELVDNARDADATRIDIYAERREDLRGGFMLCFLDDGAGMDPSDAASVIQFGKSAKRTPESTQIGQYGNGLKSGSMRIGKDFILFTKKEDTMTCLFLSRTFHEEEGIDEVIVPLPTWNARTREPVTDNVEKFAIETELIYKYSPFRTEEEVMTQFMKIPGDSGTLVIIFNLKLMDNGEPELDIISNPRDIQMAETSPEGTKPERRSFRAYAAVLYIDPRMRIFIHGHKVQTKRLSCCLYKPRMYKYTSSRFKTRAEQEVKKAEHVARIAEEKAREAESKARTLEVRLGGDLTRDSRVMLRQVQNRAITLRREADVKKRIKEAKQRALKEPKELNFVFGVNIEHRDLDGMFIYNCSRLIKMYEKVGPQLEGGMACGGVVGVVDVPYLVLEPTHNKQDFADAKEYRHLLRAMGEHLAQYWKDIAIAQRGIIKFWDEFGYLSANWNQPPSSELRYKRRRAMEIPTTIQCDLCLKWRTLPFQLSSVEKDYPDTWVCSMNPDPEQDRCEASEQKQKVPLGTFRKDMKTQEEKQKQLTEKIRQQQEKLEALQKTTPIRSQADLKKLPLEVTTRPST

Among the data in publication PMC11879086, “Identification and characterization of a human MORC2 DNA binding region that is required for gene silencing” (Nucleic Acids Research, 2024) are binding values, retold here.

The test has as its target MORC2 1-603 (N-terminal fragment of human MORC2) (human) (UniProt Q9Y6X9). As to the kind of experiment: SEC-MALS; 1-603 MORC2, 1 mg/ml, 50 mM NaCl, 3 mM MgCl2, 20 mM Na-HEPES pH 7.4, 0.5 mM TCEP, 1.5% glycerol, 0.025 mM ZnCl2, without AMP-PNP; Wyatt 030 column; both purified. (In general: SEC sorts molecules by how far they enter the pores of the column.)

Regarding “MORC2 1-603 (N-terminal fragment of human MORC2) (from UniProt Q9Y6X9 1-603) (domain or fragment)”, the binding entry is on record as “no binding (condition: without AMP-PNP (1 mg/ml))”.
